Data published in the supplement of paper PMC6078165.
± gives the standard deviation of the averaged measurements. Values are relative to the signal before dosing, not to a vehicle control; the signal also falls without drug.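 Fibroblast labels denote human fibroblasts, mainly primary ones from uterus (C12385, HUF), lung (H6013), bone (Hs27A), adrenal (HADF) and skin (WS1), plus mammary HMF and breast cancer-associated Hs343T. Cancer cells are basal-like or mesenchymal-like triple-negative breast cancer lines. A hit is a response shift exceeding 3x replicate standard deviation. The tissue of the other fibroblasts is not given here.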

System: Hs578T
Test: relative JC-1 red fluorescence (viability) vs pre-drug, coculture with fibroblast (fraction); higher = more viable cancer cells
Conditions: 10 µM
Protocol: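 JC-1 labelled TNBC cells cocultured 1:1 (1,500 cells each) with CellTrace Violet stained primary or stromal fibroblasts in 384-well plates in FluoroBrite medium, treated with one of 42 anticancer drugs at 0.1, 1, 10 or 100 uM. JC-1 red fluorescence (mitochondrial integrity in cancer cells only) was read by plate reader every 8 h for 72 h. Values are normalised to each well's pre-drug value. The stock of one drug was tenfold lower, so its dose labels may be too high.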

## N.N.[Cl][Pt][Cl] [Cisplatin]
8 h
  relative JC-1 red fluorescence: 0.916 ± 0.043
8 h, coculture fibroblast: C12385
  relative JC-1 red fluorescence: 0.825 ± 0.013
8 h, coculture fibroblast: H6013
  relative JC-1 red fluorescence: 0.861 ± 0.021
8 h, coculture fibroblast: H6019
  relative JC-1 red fluorescence: 0.752 ± 0.023
8 h, coculture fibroblast: H6076
  relative JC-1 red fluorescence: 0.921 ± 0.041
8 h, coculture fibroblast: H6231
  relative JC-1 red fluorescence: 0.8929 ± 0.00028
8 h, coculture fibroblast: HADF
  relative JC-1 red fluorescence: 0.88 ± 0.026
8 h, coculture fibroblast: HCFa
  relative JC-1 red fluorescence: 0.822 ± 0.018
8 h, coculture fibroblast: HCPF
  relative JC-1 red fluorescence: 0.952 ± 0.04
8 h, coculture fibroblast: HHSteC
  relative JC-1 red fluorescence: 0.854 ± 0.0015
8 h, coculture fibroblast: HMF
  relative JC-1 red fluorescence: 0.87 ± 0.03
8 h, coculture fibroblast: HPFa
  relative JC-1 red fluorescence: 0.876 ± 0.038
8 h, coculture fibroblast: HUF
  relative JC-1 red fluorescence: 0.828 ± 0.017
8 h, coculture fibroblast: Hs27A
  relative JC-1 red fluorescence: 0.8896 ± 0.0012
8 h, coculture fibroblast: Hs343T
  relative JC-1 red fluorescence: 0.955 ± 0.038
8 h, coculture fibroblast: WS1
  relative JC-1 red fluorescence: 0.8002 ± 0.0024
16 h
  relative JC-1 red fluorescence: 0.783 ± 0.0087
16 h, coculture fibroblast: C12385
  relative JC-1 red fluorescence: 0.7144 ± 0.001
16 h, coculture fibroblast: H6013
  relative JC-1 red fluorescence: 0.783 ± 0.015
16 h, coculture fibroblast: H6019
  relative JC-1 red fluorescence: 0.694 ± 0.015
16 h, coculture fibroblast: H6076
  relative JC-1 red fluorescence: 0.828 ± 0.044
16 h, coculture fibroblast: H6231
  relative JC-1 red fluorescence: 0.7899 ± 0.0055
16 h, coculture fibroblast: HADF
  relative JC-1 red fluorescence: 0.794 ± 0.023
16 h, coculture fibroblast: HCFa
  relative JC-1 red fluorescence: 0.688 ± 0.0075
16 h, coculture fibroblast: HCPF
  relative JC-1 red fluorescence: 0.864 ± 0.044
16 h, coculture fibroblast: HHSteC
  relative JC-1 red fluorescence: 0.7684 ± 0.0038
16 h, coculture fibroblast: HMF
  relative JC-1 red fluorescence: 0.778 ± 0.013
16 h, coculture fibroblast: HPFa
  relative JC-1 red fluorescence: 0.782 ± 0.036
16 h, coculture fibroblast: HUF
  relative JC-1 red fluorescence: 0.7004 ± 0.0053
16 h, coculture fibroblast: Hs27A
  relative JC-1 red fluorescence: 0.8411 ± 0.0043
16 h, coculture fibroblast: Hs343T
  relative JC-1 red fluorescence: 0.867 ± 0.093
16 h, coculture fibroblast: WS1
  relative JC-1 red fluorescence: 0.717 ± 0.022
24 h
  relative JC-1 red fluorescence: 0.714 ± 0.0084
24 h, coculture fibroblast: C12385
  relative JC-1 red fluorescence: 0.6509 ± 0.0008
24 h, coculture fibroblast: H6013
  relative JC-1 red fluorescence: 0.695 ± 0.041
24 h, coculture fibroblast: H6019
  relative JC-1 red fluorescence: 0.727 ± 0.11
24 h, coculture fibroblast: H6076
  relative JC-1 red fluorescence: 0.765 ± 0.022
24 h, coculture fibroblast: H6231
  relative JC-1 red fluorescence: 0.718 ± 0.02
24 h, coculture fibroblast: HADF
  relative JC-1 red fluorescence: 0.675 ± 0.024
24 h, coculture fibroblast: HCFa
  relative JC-1 red fluorescence: 0.573 ± 0.0094
24 h, coculture fibroblast: HCPF
  relative JC-1 red fluorescence: 0.804 ± 0.028
24 h, coculture fibroblast: HHSteC
  relative JC-1 red fluorescence: 0.674 ± 0.018
24 h, coculture fibroblast: HMF
  relative JC-1 red fluorescence: 0.7225 ± 0.0019
24 h, coculture fibroblast: HPFa
  relative JC-1 red fluorescence: 0.71 ± 0.053
24 h, coculture fibroblast: HUF
  relative JC-1 red fluorescence: 0.652 ± 0.054
24 h, coculture fibroblast: Hs27A
  relative JC-1 red fluorescence: 0.7731 ± 0.00087
24 h, coculture fibroblast: Hs343T
  relative JC-1 red fluorescence: 0.791 ± 0.12
24 h, coculture fibroblast: WS1
  relative JC-1 red fluorescence: 0.669 ± 0.031
32 h
  relative JC-1 red fluorescence: 0.665 ± 0.0074
32 h, coculture fibroblast: C12385
  relative JC-1 red fluorescence: 0.541 ± 0.015
32 h, coculture fibroblast: H6013
  relative JC-1 red fluorescence: 0.639 ± 0.078
32 h, coculture fibroblast: H6019
  relative JC-1 red fluorescence: 0.626 ± 0.11
32 h, coculture fibroblast: H6076
  relative JC-1 red fluorescence: 0.731 ± 0.02
32 h, coculture fibroblast: H6231
  relative JC-1 red fluorescence: 0.683 ± 0.026
32 h, coculture fibroblast: HADF
  relative JC-1 red fluorescence: 0.595 ± 0.068
32 h, coculture fibroblast: HCFa
  relative JC-1 red fluorescence: 0.515 ± 0.0077
32 h, coculture fibroblast: HCPF
  relative JC-1 red fluorescence: 0.759 ± 0.017
32 h, coculture fibroblast: HHSteC
  relative JC-1 red fluorescence: 0.621 ± 0.027
32 h, coculture fibroblast: HMF
  relative JC-1 red fluorescence: 0.698 ± 0.014
32 h, coculture fibroblast: HPFa
  relative JC-1 red fluorescence: 0.658 ± 0.074
32 h, coculture fibroblast: HUF
  relative JC-1 red fluorescence: 0.558 ± 0.071
32 h, coculture fibroblast: Hs27A
  relative JC-1 red fluorescence: 0.737 ± 0.03
32 h, coculture fibroblast: Hs343T
  relative JC-1 red fluorescence: 0.752 ± 0.11
32 h, coculture fibroblast: WS1
  relative JC-1 red fluorescence: 0.567 ± 0.024
40 h
  relative JC-1 red fluorescence: 0.599 ± 0.0097
40 h, coculture fibroblast: C12385
  relative JC-1 red fluorescence: 0.469 ± 0.012
40 h, coculture fibroblast: H6013
  relative JC-1 red fluorescence: 0.597 ± 0.088
40 h, coculture fibroblast: H6019
  relative JC-1 red fluorescence: 0.617 ± 0.12
40 h, coculture fibroblast: H6076
  relative JC-1 red fluorescence: 0.685 ± 0.021
40 h, coculture fibroblast: H6231
  relative JC-1 red fluorescence: 0.619 ± 0.036
40 h, coculture fibroblast: HADF
  relative JC-1 red fluorescence: 0.569 ± 0.06
40 h, coculture fibroblast: HCFa
  relative JC-1 red fluorescence: 0.483 ± 0.005
40 h, coculture fibroblast: HCPF
  relative JC-1 red fluorescence: 0.707 ± 0.019
40 h, coculture fibroblast: HHSteC
  relative JC-1 red fluorescence: 0.58 ± 0.041
40 h, coculture fibroblast: HMF
  relative JC-1 red fluorescence: 0.653 ± 0.013
40 h, coculture fibroblast: HPFa
  relative JC-1 red fluorescence: 0.639 ± 0.099
40 h, coculture fibroblast: HUF
  relative JC-1 red fluorescence: 0.511 ± 0.067
40 h, coculture fibroblast: Hs27A
  relative JC-1 red fluorescence: 0.687 ± 0.034
40 h, coculture fibroblast: Hs343T
  relative JC-1 red fluorescence: 0.677 ± 0.13
40 h, coculture fibroblast: WS1
  relative JC-1 red fluorescence: 0.501 ± 0.035
48 h
  relative JC-1 red fluorescence: 0.553 ± 0.0082
48 h, coculture fibroblast: C12385
  relative JC-1 red fluorescence: 0.438 ± 0.013
48 h, coculture fibroblast: H6013
  relative JC-1 red fluorescence: 0.582 ± 0.098
48 h, coculture fibroblast: H6019
  relative JC-1 red fluorescence: 0.625 ± 0.13
48 h, coculture fibroblast: H6076
  relative JC-1 red fluorescence: 0.668 ± 0.013
48 h, coculture fibroblast: H6231
  relative JC-1 red fluorescence: 0.59 ± 0.042
48 h, coculture fibroblast: HADF
  relative JC-1 red fluorescence: 0.556 ± 0.069
48 h, coculture fibroblast: HCFa
  relative JC-1 red fluorescence: 0.481 ± 0.021
48 h, coculture fibroblast: HCPF
  relative JC-1 red fluorescence: 0.685 ± 0.022
48 h, coculture fibroblast: HHSteC
  relative JC-1 red fluorescence: 0.547 ± 0.046
48 h, coculture fibroblast: HMF
  relative JC-1 red fluorescence: 0.627 ± 0.012
48 h, coculture fibroblast: HPFa
  relative JC-1 red fluorescence: 0.634 ± 0.12
48 h, coculture fibroblast: HUF
  relative JC-1 red fluorescence: 0.492 ± 0.059
48 h, coculture fibroblast: Hs27A
  relative JC-1 red fluorescence: 0.672 ± 0.056
48 h, coculture fibroblast: Hs343T
  relative JC-1 red fluorescence: 0.661 ± 0.14
48 h, coculture fibroblast: WS1
  relative JC-1 red fluorescence: 0.486 ± 0.023
56 h
  relative JC-1 red fluorescence: 0.521 ± 0.011
56 h, coculture fibroblast: C12385
  relative JC-1 red fluorescence: 0.4189 ± 0.0026
56 h, coculture fibroblast: H6013
  relative JC-1 red fluorescence: 0.563 ± 0.12
56 h, coculture fibroblast: H6019
  relative JC-1 red fluorescence: 0.621 ± 0.13
56 h, coculture fibroblast: H6076
  relative JC-1 red fluorescence: 0.639 ± 0.02
56 h, coculture fibroblast: H6231
  relative JC-1 red fluorescence: 0.546 ± 0.039
56 h, coculture fibroblast: HADF
  relative JC-1 red fluorescence: 0.535 ± 0.066
56 h, coculture fibroblast: HCFa
  relative JC-1 red fluorescence: 0.467 ± 0.031
56 h, coculture fibroblast: HCPF
  relative JC-1 red fluorescence: 0.668 ± 0.033
56 h, coculture fibroblast: HHSteC
  relative JC-1 red fluorescence: 0.53 ± 0.048
56 h, coculture fibroblast: HMF
  relative JC-1 red fluorescence: 0.603 ± 0.013
56 h, coculture fibroblast: HPFa
  relative JC-1 red fluorescence: 0.614 ± 0.14
56 h, coculture fibroblast: HUF
  relative JC-1 red fluorescence: 0.469 ± 0.054
56 h, coculture fibroblast: Hs27A
  relative JC-1 red fluorescence: 0.65 ± 0.061
56 h, coculture fibroblast: Hs343T
  relative JC-1 red fluorescence: 0.625 ± 0.14
56 h, coculture fibroblast: WS1
  relative JC-1 red fluorescence: 0.47 ± 0.018
64 h
  relative JC-1 red fluorescence: 0.488 ± 0.015
64 h, coculture fibroblast: C12385
  relative JC-1 red fluorescence: 0.4082 ± 0.0014
64 h, coculture fibroblast: H6013
  relative JC-1 red fluorescence: 0.556 ± 0.12
64 h, coculture fibroblast: H6019
  relative JC-1 red fluorescence: 0.628 ± 0.14
64 h, coculture fibroblast: H6076
  relative JC-1 red fluorescence: 0.637 ± 0.019
64 h, coculture fibroblast: H6231
  relative JC-1 red fluorescence: 0.534 ± 0.046
64 h, coculture fibroblast: HADF
  relative JC-1 red fluorescence: 0.526 ± 0.06
64 h, coculture fibroblast: HCFa
  relative JC-1 red fluorescence: 0.465 ± 0.041
64 h, coculture fibroblast: HCPF
  relative JC-1 red fluorescence: 0.639 ± 0.037
64 h, coculture fibroblast: HHSteC
  relative JC-1 red fluorescence: 0.515 ± 0.05
64 h, coculture fibroblast: HMF
  relative JC-1 red fluorescence: 0.59 ± 0.015
64 h, coculture fibroblast: HPFa
  relative JC-1 red fluorescence: 0.609 ± 0.16
64 h, coculture fibroblast: HUF
  relative JC-1 red fluorescence: 0.471 ± 0.057
64 h, coculture fibroblast: Hs27A
  relative JC-1 red fluorescence: 0.653 ± 0.083
64 h, coculture fibroblast: Hs343T
  relative JC-1 red fluorescence: 0.598 ± 0.14
64 h, coculture fibroblast: WS1
  relative JC-1 red fluorescence: 0.467 ± 0.0093
72 h
  relative JC-1 red fluorescence: 0.48 ± 0.024
72 h, coculture fibroblast: C12385
  relative JC-1 red fluorescence: 0.404 ± 0.005
72 h, coculture fibroblast: H6013
  relative JC-1 red fluorescence: 0.535 ± 0.13
72 h, coculture fibroblast: H6019
  relative JC-1 red fluorescence: 0.628 ± 0.14
72 h, coculture fibroblast: H6076
  relative JC-1 red fluorescence: 0.625 ± 0.011
72 h, coculture fibroblast: H6231
  relative JC-1 red fluorescence: 0.52 ± 0.046
72 h, coculture fibroblast: HADF
  relative JC-1 red fluorescence: 0.506 ± 0.067
72 h, coculture fibroblast: HCFa
  relative JC-1 red fluorescence: 0.445 ± 0.047
72 h, coculture fibroblast: HCPF
  relative JC-1 red fluorescence: 0.622 ± 0.051
72 h, coculture fibroblast: HHSteC
  relative JC-1 red fluorescence: 0.496 ± 0.043
72 h, coculture fibroblast: HMF
  relative JC-1 red fluorescence: 0.579 ± 0.0096
72 h, coculture fibroblast: HPFa
  relative JC-1 red fluorescence: 0.586 ± 0.17
72 h, coculture fibroblast: HUF
  relative JC-1 red fluorescence: 0.468 ± 0.058
72 h, coculture fibroblast: Hs27A
  relative JC-1 red fluorescence: 0.614 ± 0.081
72 h, coculture fibroblast: Hs343T
  relative JC-1 red fluorescence: 0.59 ± 0.15
72 h, coculture fibroblast: WS1
  relative JC-1 red fluorescence: 0.4686 ± 0.0027
